{"source": "the supplement of paper PMC8728848", "binders": {"B1": {"name": "LlpB (Pseudomonas fluorescens) (protein)", "chain": "MGSSHHHHHHSSGLVPRGSHMASSGFRIILFNSANNGTAILPPRNCLVAGQYLESPSKRYKLILEADGNLRLYDNGVPIWVADSSVPYTYVDNRPNTNLVTCFYMQGSAFLVDRVGSRTWATIGDWIDGAADRAYLQVQDDGNVVVVDGVPRWARFGFTPAALPNRGVFYPDHGTGPLPSFPVWSWTF"}}, "assay_in_all_cases": "glycan array binding signal (z-score within array); higher = stronger binding", "conditions_in_all_cases": "glycan notation: IUPAC condensed, linker removed", "key": {"Neu5Ac(a2-3)Gal(b1-4)Glc": {"target": "Neu5Ac(a2-3)Gal(b1-4)Glc", "procedure,_shortened": "(§1)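 The binding signal is a Z-score computed within each array and averaged over linkers. Arrays of the same protein sequence at different concentrations or buffers were also averaged together. Data originate from 3228 arrays in the Consortium for Functional Glycomics database, kept only where the protein sequence was available.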"}, "[1]": {"target": "Neu5Ac(a2-3)Gal(b1-4)GlcNAc", "procedure,_shortened": "as §1"}, "[2]": {"target": "Neu5Ac(a2-3)Gal(b1-4)GlcNAc(b1-2)Man", "procedure,_shortened": "as §1"}, "[3]": {"target": "Neu5Ac(a2-3)Gal(b1-4)GlcNAc(b1-2)Man(a1-3)[GlcNAc(b1-4)][Neu5Ac(a2-3)Gal(b1-4)GlcNAc(b1-2)Man(a1-6)]Man(b1-4)GlcNAc(b1-4)GlcNAc", "procedure,_shortened": "as §1"}, "[4]": {"target": "Neu5Ac(a2-3)Gal(b1-4)GlcNAc(b1-2)Man(a1-3)[Neu5Ac(a2-3)Gal(b1-4)GlcNAc(b1-2)Man(a1-6)]Man(b1-4)GlcNAc(b1-4)GlcNAc", "procedure,_shortened": "as §1"}, "[5]": {"target": "Neu5Ac(a2-3)Gal(b1-4)GlcNAc(b1-2)Man(a1-3)[Neu5Ac(a2-3)Gal(b1-4)GlcNAc(b1-2)Man(a1-6)]Man(b1-4)GlcNAc(b1-4)[Fuc(a1-6)]GlcNAc", "procedure,_shortened": "as §1"}, "[6]": {"target": "Neu5Ac(a2-3)Gal(b1-4)GlcNAc(b1-2)Man(a1-3)[Neu5Ac(a2-6)Gal(b1-4)GlcNAc(b1-2)Man(a1-6)]Man(b1-4)GlcNAc(b1-4)GlcNAc", "procedure,_shortened": "as §1"}, "[7]": {"target": "Neu5Ac(a2-3)Gal(b1-4)GlcNAc(b1-2)[Neu5Ac(a2-3)Gal(b1-4)GlcNAc(b1-4)]Man(a1-3)[GlcNAc(b1-4)][Neu5Ac(a2-3)Gal(b1-4)GlcNAc(b1-2)[Neu5Ac(a2-3)Gal(b1-4)GlcNAc(b1-6)]Man(a1-6)]Man(b1-4)GlcNAc(b1-4)GlcNAc", "procedure,_shortened": "as §1"}, "[8]": {"target": "Neu5Ac(a2-3)Gal(b1-4)GlcNAc(b1-2)[Neu5Ac(a2-3)Gal(b1-4)GlcNAc(b1-4)]Man(a1-3)[GlcNAc(b1-4)][Neu5Ac(a2-3)Gal(b1-4)GlcNAc(b1-4)Man(a1-6)]Man(b1-4)GlcNAc(b1-4)GlcNAc", "procedure,_shortened": "as §1"}, "[9]": {"target": "Neu5Ac(a2-3)Gal(b1-4)GlcNAc(b1-2)[Neu5Ac(a2-3)Gal(b1-4)GlcNAc(b1-6)]Man(a1-6)[Neu5Ac(a2-3)Gal(b1-4)GlcNAc(b1-2)Man(a1-3)][GlcNAc(b1-4)]Man(b1-4)GlcNAc(b1-4)GlcNAc", "procedure,_shortened": "as §1"}, "[10]": {"target": "Neu5Ac(a2-3)Gal(b1-4)GlcNAc(b1-3)Gal", "procedure,_shortened": "as §1"}, "[11]": {"target": "Neu5Ac(a2-3)Gal(b1-4)GlcNAc(b1-3)Gal(b1-3)GlcNAc", "procedure,_shortened": "as §1"}, "[12]": {"target": "Neu5Ac(a2-3)Gal(b1-4)GlcNAc(b1-3)Gal(b1-4)GlcNAc", "procedure,_shortened": "as §1"}, "[13]": {"target": "Neu5Ac(a2-3)Gal(b1-4)GlcNAc(b1-3)Gal(b1-4)GlcNAc(b1-2)Man(a1-3)[Neu5Ac(a2-3)Gal(b1-4)GlcNAc(b1-3)Gal(b1-4)GlcNAc(b1-2)Man(a1-6)]Man(b1-4)GlcNAc(b1-4)GlcNAc", "procedure,_shortened": "as §1"}, "[14]": {"target": "Neu5Ac(a2-3)Gal(b1-4)GlcNAc(b1-3)Gal(b1-4)GlcNAc(b1-3)Gal(b1-4)GlcNAc", "procedure,_shortened": "as §1"}, "[15]": {"target": "Neu5Ac(a2-3)Gal(b1-4)GlcNAc(b1-3)Gal(b1-4)GlcNAc(b1-3)Gal(b1-4)GlcNAc(b1-2)Man(a1-3)[Neu5Ac(a2-3)Gal(b1-4)GlcNAc(b1-3)Gal(b1-4)GlcNAc(b1-3)Gal(b1-4)GlcNAc(b1-2)Man(a1-6)]GalNAc", "procedure,_shortened": "as §1"}, "[16]": {"target": "Neu5Ac(a2-3)Gal(b1-4)GlcNAc(b1-3)Gal(b1-4)GlcNAc(b1-3)GalNAc", "procedure,_shortened": "as §1"}, "[17]": {"target": "Neu5Ac(a2-3)Gal(b1-4)GlcNAc(b1-3)Gal(b1-4)GlcNAc(b1-3)[Neu5Ac(a2-3)Gal(b1-4)GlcNAc(b1-3)Gal(b1-4)GlcNAc(b1-6)]GalNAc", "procedure,_shortened": "as §1"}, "[18]": {"target": "Neu5Ac(a2-3)Gal(b1-4)GlcNAc(b1-3)Gal(b1-4)GlcNAc(b1-6)[Gal(b1-3)]GalNAc", "procedure,_shortened": "as §1"}, "[19]": {"target": "Neu5Ac(a2-3)Gal(b1-4)GlcNAc(b1-3)Gal(b1-4)[Fuc(a1-3)]GlcNAc", "procedure,_shortened": "as §1"}, "[20]": {"target": "Neu5Ac(a2-3)Gal(b1-4)GlcNAc(b1-3)GalNAc", "procedure,_shortened": "as §1"}, "[21]": {"target": "Neu5Ac(a2-3)Gal(b1-4)GlcNAc(b1-3)[Neu5Ac(a2-3)Gal(b1-4)GlcNAc(b1-6)]GalNAc", "procedure,_shortened": "as §1"}, "[22]": {"target": "Neu5Ac(a2-3)Gal(b1-4)GlcNAc(b1-6)GalNAc", "procedure,_shortened": "as §1"}, "[23]": {"target": "Neu5Ac(a2-3)Gal(b1-4)GlcNAc(b1-6)[Gal(b1-3)]GalNAc", "procedure,_shortened": "as §1"}, "[24]": {"target": "Neu5Ac(a2-3)Gal(b1-4)GlcNAc(b1-6)[Neu5Ac(a2-3)Gal(b1-3)]GalNAc", "procedure,_shortened": "as §1"}, "[25]": {"target": "Neu5Ac(a2-3)Gal(b1-4)GlcNAc6S", "procedure,_shortened": "as §1"}, "[26]": {"target": "Neu5Ac(a2-3)Gal(b1-4)[Fuc(a1-3)]GlcNAc", "procedure,_shortened": "as §1"}, "[27]": {"target": "Neu5Ac(a2-3)Gal(b1-4)[Fuc(a1-3)]GlcNAc(b1-2)Man", "procedure,_shortened": "as §1"}, "[28]": {"target": "Neu5Ac(a2-3)Gal(b1-4)[Fuc(a1-3)]GlcNAc(b1-3)Gal", "procedure,_shortened": "as §1"}, "[29]": {"target": "Neu5Ac(a2-3)Gal(b1-4)[Fuc(a1-3)]GlcNAc(b1-3)Gal(b1-4)GlcNAc", "procedure,_shortened": "as §1"}, "[30]": {"target": "Neu5Ac(a2-3)Gal(b1-4)[Fuc(a1-3)]GlcNAc(b1-3)Gal(b1-4)[Fuc(a1-3)]GlcNAc(b1-3)Gal(b1-4)[Fuc(a1-3)]GlcNAc", "procedure,_shortened": "as §1"}, "[31]": {"target": "Neu5Ac(a2-3)Gal(b1-4)[Fuc(a1-3)]GlcNAc(b1-3)GalNAc", "procedure,_shortened": "as §1"}, "[32]": {"target": "Neu5Ac(a2-3)Gal(b1-4)[Fuc(a1-3)]GlcNAc(b1-6)[Gal(b1-3)]GalNAc", "procedure,_shortened": "as §1"}, "[33]": {"target": "Neu5Ac(a2-3)Gal(b1-4)[Fuc(a1-3)]GlcNAc(b1-6)[Neu5Ac(a2-3)Gal(b1-3)]GalNAc", "procedure,_shortened": "as §1"}, "[34]": {"target": "Neu5Ac(a2-3)Gal(b1-4)[Fuc(a1-3)]GlcNAc6S", "procedure,_shortened": "as §1"}, "[35]": {"target": "Neu5Ac(a2-3)Gal6S(b1-4)GlcNAc", "procedure,_shortened": "as §1"}, "[36]": {"target": "Neu5Ac(a2-3)Gal6S(b1-4)[Fuc(a1-3)]GlcNAc", "procedure,_shortened": "as §1"}, "Neu5Ac(a2-3)GalNAc": {"target": "Neu5Ac(a2-3)GalNAc", "procedure,_shortened": "as §1"}}, "note": "This is one part of the list."}
{"binder": "B1", "values": [{"measurement": "glycan array binding signal (z-score)", "setting": "Neu5Ac(a2-3)Gal(b1-4)Glc", "value": 2.98}, {"measurement": "glycan array binding signal (z-score)", "setting": "[1]", "value": -1.1}, {"measurement": "glycan array binding signal (z-score)", "setting": "[2]", "value": 1.15}, {"measurement": "glycan array binding signal (z-score)", "setting": "[3]", "value": -1.06}, {"measurement": "glycan array binding signal (z-score)", "setting": "[4]", "value": 1.26}, {"measurement": "glycan array binding signal (z-score)", "setting": "[5]", "value": -0.332}, {"measurement": "glycan array binding signal (z-score)", "setting": "[6]", "value": -0.622}, {"measurement": "glycan array binding signal (z-score)", "setting": "[7]", "value": 1.21}, {"measurement": "glycan array binding signal (z-score)", "setting": "[8]", "value": 0.344}, {"measurement": "glycan array binding signal (z-score)", "setting": "[9]", "value": -0.505}, {"measurement": "glycan array binding signal (z-score)", "setting": "[10]", "value": -0.928}, {"measurement": "glycan array binding signal (z-score)", "setting": "[11]", "value": -0.735}, {"measurement": "glycan array binding signal (z-score)", "setting": "[12]", "value": 0.106}, {"measurement": "glycan array binding signal (z-score)", "setting": "[13]", "value": 0.657}, {"measurement": "glycan array binding signal (z-score)", "setting": "[14]", "value": -1.21}, {"measurement": "glycan array binding signal (z-score)", "setting": "[15]", "value": 0.512}, {"measurement": "glycan array binding signal (z-score)", "setting": "[16]", "value": -0.006}, {"measurement": "glycan array binding signal (z-score)", "setting": "[17]", "value": -0.12}, {"measurement": "glycan array binding signal (z-score)", "setting": "[18]", "value": -0.141}, {"measurement": "glycan array binding signal (z-score)", "setting": "[19]", "value": -1.33}, {"measurement": "glycan array binding signal (z-score)", "setting": "[20]", "value": -0.794}, {"measurement": "glycan array binding signal (z-score)", "setting": "[21]", "value": -0.411}, {"measurement": "glycan array binding signal (z-score)", "setting": "[22]", "value": 1.64}, {"measurement": "glycan array binding signal (z-score)", "setting": "[23]", "value": 0.321}, {"measurement": "glycan array binding signal (z-score)", "setting": "[24]", "value": -0.463}, {"measurement": "glycan array binding signal (z-score)", "setting": "[25]", "value": -1.53}, {"measurement": "glycan array binding signal (z-score)", "setting": "[26]", "value": -0.889}, {"measurement": "glycan array binding signal (z-score)", "setting": "[27]", "value": -0.176}, {"measurement": "glycan array binding signal (z-score)", "setting": "[28]", "value": -0.814}, {"measurement": "glycan array binding signal (z-score)", "setting": "[29]", "value": 1.96}, {"measurement": "glycan array binding signal (z-score)", "setting": "[30]", "value": -0.145}, {"measurement": "glycan array binding signal (z-score)", "setting": "[31]", "value": 0.993}, {"measurement": "glycan array binding signal (z-score)", "setting": "[32]", "value": 1.93}, {"measurement": "glycan array binding signal (z-score)", "setting": "[33]", "value": -0.241}, {"measurement": "glycan array binding signal (z-score)", "setting": "[34]", "value": 0.242}, {"measurement": "glycan array binding signal (z-score)", "setting": "[35]", "value": -0.815}, {"measurement": "glycan array binding signal (z-score)", "setting": "[36]", "value": -0.378}, {"measurement": "glycan array binding signal (z-score)", "setting": "Neu5Ac(a2-3)GalNAc", "value": -0.197}]}
